Assay results reported in patent US20200093807A1, “NEW USE OF RIFAMYCIN-NITROIMIDAZOLE CONJUGATE MOLECULE” (TenNor Therapeutics Limited, priority 2017, published 2020).
Converted amounts (≈) assume the structure as drawn.

Columns and labels:
Assay in all cases: MIC, anaerobic agar dilution (CLSI)
Type in all cases: cell-based
[1] = test system: Bacteroides gracilis ATCC 33236; settings: Campylobacter gracilis, ATCC33236, 35° C., 42-48 hours
[2] = test system: Peptostreptococcus (magnus) ATCC 14956; settings: Finegoldia magna, ATCC14956, 35° C., 42-48 hours
[3] = test system: Eubacterium (rectale) ATCC 33656; settings: Agathobacter rectalis, ATCC33656, 35° C., 42-48 hours
[4] = test system: Bacteroides fragilis (MET^R) MMX 3387; settings: 35° C., 42-48 hours
[5] = test system: Anaerococcus (Anaerococcus(prevotii)) ATCC 9321; settings: 35° C., 42-48 hours
[6] = test system: Lactobacillus jensenii ATCC 25258; settings: ATCC25258, 35° C., 42-48 hours
[7] = test system: Bacteroides fragilis (QC) ATCC 25285; settings: ATCC25285, 35° C., 42-48 hours
[8] = test system: Veionella parvula ATCC 17745; settings: 35° C., 42-48 hours
[9] = test system: Lactobacillus gasseri ATCC 33323; settings: ATCC33323, 35° C., 42-48 hours

SMILES: CCC[C@@H]1C[C@@H](C(=O)N[C@@H]([C@H]2O[C@H](SC)[C@H](O)[C@@H](O)[C@H]2O)[C@H](C)Cl)N(C)C1 [Clindamycin]
- MIC [1]: 0.06 µg/mL (≈ 0.141 µM)
- MIC [2]: 1 µg/mL (≈ 2.35 µM)
- MIC [3]: 0.008 µg/mL (≈ 0.0188 µM)
- MIC [4]: 2 µg/mL (≈ 4.71 µM)
- MIC [5]: 0.06 µg/mL (≈ 0.141 µM)
- MIC [6]: 0.5 µg/mL (≈ 1.18 µM)
- MIC [7]: 1 µg/mL (≈ 2.35 µM)
- MIC [8]: 32 µg/mL (≈ 75.3 µM)
- MIC [9]: 4 µg/mL (≈ 9.41 µM)
